According to PubChem BioAssay AID298 (DTP/NCI, 2004):
The list shows only some results of the screen, not a fair sample: it gathers tests that were run many times, whatever their T/C, doses with no T/C, and many T/C values between a quarter and a half above the control. Further doses and runs are listed elsewhere. T/C gives the treated animals as a percentage of the vehicle group. Schedules are NCI's codes, read here as Q, the interval in days (D) or hours (H), X, the number of doses. Some T/C values are followed by the survivors on the day toxicity was checked, most often the fifth; without a count, all were alive then. Some values lie below zero, which means that the treated tumours became smaller. Some doses were run more than once; their values stand side by side, smallest first. Some doses have a count of surviving animals in place of a T/C: the source holds a T/C of zero for them, seemingly a mark for toxic or unscored doses. Counts of survivors are from the toxicity check (mostly the fifth day) where no day follows; animals may have died later.

Tested on: MX-1 breast xenograft, intrarenal, nude mice, tumor weight
Experiment: NCI In Vivo Anticancer Drug Screen. Data for tumor model Human Mammary Carcinoma MX-1 Xenograft (intrarenal inoculation) in NU/NU BALB/C (nude) mice
Details: T/C endpoint: mean tumor weight change, higher T/C = larger tumour; for T/C: evaluated on day 11
How it was run: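 Transplantable tumors established in mice; animals dosed with compound or vehicle; survival or tumor size then recorded. Result reported as treated (T) divided by vehicle control (C).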

[1] = dose: 150.0 mg/kg/injection, schedule: Q04DX003 (ip), vehicle: Klucel (hydroxypropylcellulose) (HPC)
[2] = dose: 300.0 mg/kg/injection, schedule: Q04DX003 (ip), vehicle: Klucel (hydroxypropylcellulose) (HPC)
[3] = dose: 600.0 mg/kg/injection, schedule: Q04DX003 (ip), vehicle: Klucel (hydroxypropylcellulose) (HPC)
[4] = dose: 1200.0 mg/kg/injection, schedule: Q04DX003 (ip), vehicle: Klucel (hydroxypropylcellulose) (HPC)
[5] = dose: 150.0 mg/kg/injection, schedule: Q04DX003 (sc), vehicle: saline with Tween-80
[6] = dose: 600.0 mg/kg/injection, schedule: Q04DX003 (sc), vehicle: saline with Tween-80
[7] = dose: 300.0 mg/kg/injection, schedule: Q04DX003 (ip), vehicle: saline with Tween-80
[8] = dose: 600.0 mg/kg/injection, schedule: Q04DX003 (ip), vehicle: saline with Tween-80
[9] = dose: 1200.0 mg/kg/injection, schedule: Q04DX003 (ip), vehicle: saline with Tween-80

In the case of `CN=C=O`, the survivor count (dose: 18.75 mg/kg/injection, schedule: Q04DX003 (ip), vehicle: olive oil, sesame oil, peanut oil) is reported as 2 of 6 on day 11, the survivor count (dose: 37.5 mg/kg/injection, schedule: Q04DX003 (ip), vehicle: olive oil, sesame oil, peanut oil) is reported as 3 of 6 on day 11 and the survivor count (dose: 75.0 mg/kg/injection, schedule: Q04DX003 (ip), vehicle: olive oil, sesame oil, peanut oil) is reported as 1 of 6 on day 11. For the same molecule, the survivor count (dose: 150.0 mg/kg/injection, schedule: Q04DX003 (ip), vehicle: olive oil, sesame oil, peanut oil) was 0 of 6 on day 11, the survivor count (dose: 300.0 mg/kg/injection, schedule: Q04DX003 (ip), vehicle: olive oil, sesame oil, peanut oil) was 0 of 6 on day 11 and the survivor count (dose: 600.0 mg/kg/injection, schedule: Q04DX003 (ip), vehicle: olive oil, sesame oil, peanut oil) was 0 of 6 on day 11. The survivor count (dose: 1200.0 mg/kg/injection, schedule: Q04DX003 (ip), vehicle: olive oil, sesame oil, peanut oil) was 0 of 6 on day 11.

`CCOC(=O)Nc1cc(NC(C)/C(=N/O)c2ccccc2)c([N+](=O)[O-])c(N)n1` (stereo unspecified) was tested, and the survivor count [1] was 0 of 6 on day 11, 2 of 6 on day 11, 3 of 6 on day 11, the survivor count [2] was 2 of 6 on day 11 and the survivor count [3] was 0 of 6 on day 11 and 1 of 6 on day 11. For the same molecule, the survivor count [4] was 0 of 6 on day 11 and 3 of 6 on day 11.

`CC1c2ccccc2CC(CCN(C)C)c2ccccc21` (stereo unspecified) was tested, and the survivor count (dose: 75.0 mg/kg/injection, schedule: Q04DX003 (sc), vehicle: saline with Tween-80) was 2 of 6 on day 11, the survivor count [5] was 0 of 6 on day 11 and the survivor count (dose: 300.0 mg/kg/injection, schedule: Q04DX003 (sc), vehicle: saline with Tween-80) was 0 of 6 on day 11. The survivor count [6] was 0 of 6 on day 11.

With `N#Cc1c(-c2ccccc2)c(-c2ccccc2)nn(CC(=O)O)c1=O` the survivor count (dose: 400.0 mg/kg/injection, schedule: Q04DX003 (ip), vehicle: distilled water + Tween-80) was 2 of 6 on day 11 and the survivor count (dose: 800.0 mg/kg/injection, schedule: Q04DX003 (ip), vehicle: distilled water + Tween-80) was 0 of 6 on day 11.

`CC(C)(O)/C=C/C(=O)[C@](C)(O)[C@H]1[C@H](O)C[C@@]2(C)[C@@H]3CC=C4[C@@H](C=C(O)C(=O)C4(C)C)[C@]3(C)C(=O)C[C@]12C` was tested, and the survivor count (dose: 4.0 mg/kg/injection, schedule: Q04DX003 (ip), vehicle: water) was 0 of 6 on day 11.

For `CN(C)CCC(=O)C(=Cc1ccc(O)cc1)C(=O)CCN(C)C`, the survivor count (dose: 300.0 mg/kg/injection, schedule: Q04DX003 (ip), vehicle: saline) was 1 of 6 on day 11 and the survivor count (dose: 600.0 mg/kg/injection, schedule: Q04DX003 (ip), vehicle: saline) was 0 of 6 on day 11.

In the case of `CCOC1=Cc2c(oc3c(C(C)(C)C)cc(OCC)cc23)OC(C(C)(C)C)=C1`, the T/C [5] is reported as 128 % of control and the T/C [6] is reported as 128 % of control.

`O=C(Nc1cccnc1)c1ccc([N+](=O)[O-])s1` was tested, and the survivor count (dose: 400.0 mg/kg/injection, schedule: Q04DX003 (ip), vehicle: saline) was 3 of 6 on day 11.

With `COC(=Nc1ccccc1)SSC(C)C` the survivor count (dose: 1200.0 mg/kg/injection, schedule: Q04DX003 (sc), vehicle: saline with Tween-80) was 1 of 6 on day 11 and the survivor count (dose: 2400.0 mg/kg/injection, schedule: Q04DX003 (sc), vehicle: saline with Tween-80) was 0 of 6 on day 11.

With `O=C1CN(CCN2CC(=O)N(CN3CCOCC3)C(=O)C2)CC(=O)N1CN1CCOCC1` the survivor count (dose: 600.0 mg/kg/injection, schedule: Q04DX003 (ip), vehicle: water) was 0 of 6 on day 11 and the survivor count (dose: 1200.0 mg/kg/injection, schedule: Q04DX003 (ip), vehicle: water) was 0 of 6 on day 11.

`COc1nc(C(Cl)(Cl)Cl)c(Cl)c(OC)c1Cl` was tested, and the T/C [1] was 1, 2, 6 [5 of 6 alive on day 11], 49 % of control, the T/C [2] was -58 [5 of 6 alive on day 11], -18, 4, 13 % of control and the survivor count [3] was 0 of 6 on day 11, 1 of 6 on day 11, 2 of 6 on day 11. The survivor count (dose: 900.0 mg/kg/injection, schedule: Q04DX003 (ip), vehicle: Klucel (hydroxypropylcellulose) (HPC)) was 0 of 5 on day 11 and the survivor count [4] was 0 of 6 on day 11.

In the case of `CNc1nc(NC)nc(NC)n1`, the survivor count (dose: 200.0 mg/kg/injection, schedule: Q01DX010 (sc), vehicle: Klucel (hydroxypropylcellulose) (HPC)) is reported as 1 of 2 on day 11 and the survivor count (dose: 400.0 mg/kg/injection, schedule: Q01DX010 (sc), vehicle: Klucel (hydroxypropylcellulose) (HPC)) is reported as 0 of 2 on day 11.

With `Clc1ccc(CN2COc3c(ccc4cccnc34)C2)cc1Cl` the T/C (dose: 200.0 mg/kg/injection, schedule: Q01DX010 (sc), vehicle: saline with Tween-80) was 134 % of control.

`O=S(=O)(O)C1=CC(=N\Cl)/C=CC/1=N/Cl` was tested, and the survivor count [7] was 0 of 6 on day 11, the survivor count [8] was 0 of 6 on day 11 and the survivor count [9] was 0 of 6 on day 11.

For `N=C(N)c1ccc(N=Nc2c(O)ccc3cc(O)ccc23)cc1`, the survivor count [2] was 3 of 6 on day 11 and the survivor count [3] was 0 of 6 on day 11 and 2 of 6 on day 11.

In the case of `ClC1(Cl)Cc2ccccc21`, the survivor count [9] is reported as 0 of 6 on day 11.

`OC(CBr)C(O)C(O)C(O)CBr` (stereo unspecified) was tested, and the survivor count (dose: 120.0 mg/kg/injection, schedule: Q01DX010 (ip), vehicle: Klucel (hydroxypropylcellulose) (HPC)) was 1 of 3 on day 11, the survivor count (dose: 200.0 mg/kg/injection, schedule: Q04DX003 (sc), vehicle: Klucel (hydroxypropylcellulose) (HPC)) was 0 of 3 on day 11 and the survivor count (dose: 400.0 mg/kg/injection, schedule: Q04DX003 (ip), vehicle: Klucel (hydroxypropylcellulose) (HPC)) was 0 of 3 on day 11. For the same molecule, the survivor count (dose: 400.0 mg/kg/injection, schedule: Q04DX003 (sc), vehicle: Klucel (hydroxypropylcellulose) (HPC)) was 0 of 3 on day 11.

`CCCC1CCC(=C2C(=O)CCC2=O)O1` (stereo unspecified) was tested, and the survivor count [7] was 3 of 6 on day 11, the survivor count [8] was 1 of 6 on day 11 and the survivor count [9] was 0 of 6 on day 11.

In the case of `CS(C)=O`, the T/C (dose: 1500.0 mg/kg/injection, schedule: Q01DX010 (sc), vehicle: saline) is reported as 144 % of control and the T/C (dose: 6000.0 mg/kg/injection, schedule: Q01DX010 (sc), vehicle: saline) is reported as 127 % of control.

With `CCCNC1=C(C)C(=O)C2=C(C1=O)[C@H](COC(N)=O)[C@]1(OC)[C@@H]3N[C@@H]3CN21` the survivor count (dose: 24.0 mg/kg/injection, schedule: Q04DX003 (sc), vehicle: saline) was 0 of 6 on day 11.

For `COc1cc(C(CC(C)=O)c2cc3c(cc2OC(C)=O)OCO3)cc(OC)c1OC` (stereo unspecified) (tested in a mixture with another compound), the survivor count (dose: 333.33 mg/kg/injection, schedule: Q04DX003 (ip), vehicle: saline with Tween-80) was 0 of 6 on day 11, the survivor count (dose: 400.0 mg/kg/injection, schedule: Q04DX003 (ip), vehicle: saline with Tween-80) was 0 of 6 on day 11 and the survivor count (dose: 555.55 mg/kg/injection, schedule: Q04DX003 (ip), vehicle: saline with Tween-80) was 1 of 6 on day 11.

`C/C=C/C=C\C=C/C(O)CC(OP(=O)(O)O)C(C)(O)/C=C/C1CC=CC(=O)O1` (stereo unspecified) was tested, and the survivor count (dose: 48.0 mg/kg/injection, schedule: Q04DX003 (ip), vehicle: water) was 2 of 6 on day 11.

With `NC(Cc1ccc(N(CCCl)CCCl)cc1)C(=O)O` (stereo unspecified) the survivor count (dose: 20.0 mg/kg/injection, schedule: Q04DX003 (sc), vehicle: Klucel (hydroxypropylcellulose) (HPC)) was 3 of 6 on day 11, the survivor count (dose: 40.0 mg/kg/injection, schedule: Q04DX003 (sc), vehicle: Klucel (hydroxypropylcellulose) (HPC)) was 0 of 6 on day 11 and the survivor count (dose: 80.0 mg/kg/injection, schedule: Q04DX003 (sc), vehicle: Klucel (hydroxypropylcellulose) (HPC)) was 0 of 6 on day 11.

In the case of `COc1cc2c(c3c1c(=O)c1cccc(F)c1n3C)C=CC(C)(C)O2`, the survivor count [1] is reported as 1 of 6 on day 11, the survivor count [2] is reported as 1 of 6 on day 11 and the survivor count [3] is reported as 0 of 6 on day 11.
